Source: paper PMC4728445
No constants are given. Whether binding was seen depends on the method and setting. In cells and extracts the contact can be indirect. Some binding calls cover weakened binding; strength is not graded here.

Chains of the proteins cited; added tags and fusions are not shown.
UniProt Q80TR8: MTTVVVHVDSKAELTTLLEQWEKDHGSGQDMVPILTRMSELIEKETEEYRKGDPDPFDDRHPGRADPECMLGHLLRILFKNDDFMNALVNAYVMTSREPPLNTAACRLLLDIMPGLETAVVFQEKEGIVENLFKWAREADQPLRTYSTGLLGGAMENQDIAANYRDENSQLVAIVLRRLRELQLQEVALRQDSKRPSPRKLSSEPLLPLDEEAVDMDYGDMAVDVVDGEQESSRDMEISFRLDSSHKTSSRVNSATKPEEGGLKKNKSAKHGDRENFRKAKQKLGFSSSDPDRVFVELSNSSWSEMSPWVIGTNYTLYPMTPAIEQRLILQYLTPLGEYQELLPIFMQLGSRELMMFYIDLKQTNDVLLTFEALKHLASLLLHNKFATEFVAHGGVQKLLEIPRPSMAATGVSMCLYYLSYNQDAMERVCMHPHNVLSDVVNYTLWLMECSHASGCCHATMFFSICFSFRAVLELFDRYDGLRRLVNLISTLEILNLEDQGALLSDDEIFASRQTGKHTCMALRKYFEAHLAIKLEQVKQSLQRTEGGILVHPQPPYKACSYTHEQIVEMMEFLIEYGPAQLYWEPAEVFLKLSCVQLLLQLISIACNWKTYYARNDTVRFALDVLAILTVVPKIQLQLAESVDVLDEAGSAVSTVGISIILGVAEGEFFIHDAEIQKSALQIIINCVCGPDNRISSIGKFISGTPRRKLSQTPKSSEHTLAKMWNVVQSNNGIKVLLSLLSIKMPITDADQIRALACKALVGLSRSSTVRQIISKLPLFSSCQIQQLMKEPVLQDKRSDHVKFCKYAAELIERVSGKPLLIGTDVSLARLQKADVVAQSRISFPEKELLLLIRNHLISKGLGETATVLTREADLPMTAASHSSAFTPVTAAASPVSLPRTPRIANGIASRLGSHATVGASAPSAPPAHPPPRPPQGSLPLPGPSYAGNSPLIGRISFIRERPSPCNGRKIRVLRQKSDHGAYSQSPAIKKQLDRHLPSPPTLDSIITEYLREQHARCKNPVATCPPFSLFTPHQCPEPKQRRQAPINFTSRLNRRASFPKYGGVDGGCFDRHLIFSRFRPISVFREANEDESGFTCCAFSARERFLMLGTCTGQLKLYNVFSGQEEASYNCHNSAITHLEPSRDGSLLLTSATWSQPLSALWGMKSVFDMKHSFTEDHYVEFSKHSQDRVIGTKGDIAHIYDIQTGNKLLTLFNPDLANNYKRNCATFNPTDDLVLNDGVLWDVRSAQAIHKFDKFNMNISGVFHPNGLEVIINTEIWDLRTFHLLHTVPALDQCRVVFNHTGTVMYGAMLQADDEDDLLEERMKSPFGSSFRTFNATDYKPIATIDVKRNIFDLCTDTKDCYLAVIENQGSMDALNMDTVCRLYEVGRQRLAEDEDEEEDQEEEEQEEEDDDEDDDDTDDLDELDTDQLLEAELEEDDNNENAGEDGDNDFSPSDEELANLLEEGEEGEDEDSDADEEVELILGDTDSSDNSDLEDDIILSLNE
UniProt P23804: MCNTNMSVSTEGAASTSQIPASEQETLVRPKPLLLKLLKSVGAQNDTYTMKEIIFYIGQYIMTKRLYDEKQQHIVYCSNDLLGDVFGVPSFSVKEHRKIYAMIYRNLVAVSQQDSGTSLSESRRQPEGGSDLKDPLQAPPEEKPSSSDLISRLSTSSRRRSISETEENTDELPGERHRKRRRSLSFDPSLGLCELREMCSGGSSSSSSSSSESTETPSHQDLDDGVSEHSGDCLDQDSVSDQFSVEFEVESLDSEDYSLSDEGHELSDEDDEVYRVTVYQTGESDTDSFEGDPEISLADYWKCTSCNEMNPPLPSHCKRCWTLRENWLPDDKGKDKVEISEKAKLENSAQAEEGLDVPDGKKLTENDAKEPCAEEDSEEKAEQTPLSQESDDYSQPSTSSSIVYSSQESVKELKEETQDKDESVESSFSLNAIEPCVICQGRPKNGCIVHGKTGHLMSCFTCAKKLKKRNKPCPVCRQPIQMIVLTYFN
UniProt P61202: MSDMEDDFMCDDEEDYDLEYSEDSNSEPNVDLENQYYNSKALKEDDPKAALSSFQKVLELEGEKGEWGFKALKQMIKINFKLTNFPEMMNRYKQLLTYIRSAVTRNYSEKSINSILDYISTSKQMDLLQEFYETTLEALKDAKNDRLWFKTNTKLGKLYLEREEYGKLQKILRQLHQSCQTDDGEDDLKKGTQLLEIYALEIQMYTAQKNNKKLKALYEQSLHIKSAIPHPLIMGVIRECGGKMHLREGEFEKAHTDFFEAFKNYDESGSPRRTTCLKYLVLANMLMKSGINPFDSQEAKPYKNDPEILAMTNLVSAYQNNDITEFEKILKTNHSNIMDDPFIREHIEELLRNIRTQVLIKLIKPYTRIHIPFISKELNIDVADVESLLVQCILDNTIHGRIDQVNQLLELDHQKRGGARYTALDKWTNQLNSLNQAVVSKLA
UniProt Q99LD4: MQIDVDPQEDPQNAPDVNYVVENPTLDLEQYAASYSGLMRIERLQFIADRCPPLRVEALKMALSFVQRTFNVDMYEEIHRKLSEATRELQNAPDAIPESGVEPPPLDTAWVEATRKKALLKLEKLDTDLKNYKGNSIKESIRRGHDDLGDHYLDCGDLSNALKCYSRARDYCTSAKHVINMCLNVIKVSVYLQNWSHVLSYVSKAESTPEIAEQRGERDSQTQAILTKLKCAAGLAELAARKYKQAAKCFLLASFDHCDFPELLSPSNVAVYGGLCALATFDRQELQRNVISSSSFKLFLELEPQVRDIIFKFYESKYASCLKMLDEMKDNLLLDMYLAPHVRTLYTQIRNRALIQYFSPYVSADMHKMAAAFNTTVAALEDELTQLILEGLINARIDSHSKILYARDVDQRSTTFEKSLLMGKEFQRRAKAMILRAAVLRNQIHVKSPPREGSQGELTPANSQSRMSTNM

Assays:
[1] = molecular target: DCAF1 (Ddb1-cullin4-associated-factor 1) (mouse (endogenous in CD4+ T cells)) (UniProt Q80TR8); assay: co-IP; co-immunoprecipitation of CSN1, CSN2 with DCAF1 in TCR-stimulated CD4+ T cells, immunoblot
[2] = molecular target: MDM2 (mouse (endogenous in activated T cells)) (UniProt P23804); assay: co-IP; activated T cells; the experiment stands in Supplementary Fig. 4c; which protein was precipitated is not told in the text (antibodies to DCAF1 and to MDM2 are both listed for IP)

Row | binding [2] | Substance | binding [1]
1 | – | CSN2 (from UniProt P61202 1-443) | binds
2 | binds | DCAF1 (Ddb1-cullin4-associated-factor 1) (from UniProt Q80TR8 1-1506) | –
3 | – | CSN1 (from UniProt Q99LD4 1-471) | binds
